Amino acid sequences for entries named in this document (tags omitted).
UniProt P42859: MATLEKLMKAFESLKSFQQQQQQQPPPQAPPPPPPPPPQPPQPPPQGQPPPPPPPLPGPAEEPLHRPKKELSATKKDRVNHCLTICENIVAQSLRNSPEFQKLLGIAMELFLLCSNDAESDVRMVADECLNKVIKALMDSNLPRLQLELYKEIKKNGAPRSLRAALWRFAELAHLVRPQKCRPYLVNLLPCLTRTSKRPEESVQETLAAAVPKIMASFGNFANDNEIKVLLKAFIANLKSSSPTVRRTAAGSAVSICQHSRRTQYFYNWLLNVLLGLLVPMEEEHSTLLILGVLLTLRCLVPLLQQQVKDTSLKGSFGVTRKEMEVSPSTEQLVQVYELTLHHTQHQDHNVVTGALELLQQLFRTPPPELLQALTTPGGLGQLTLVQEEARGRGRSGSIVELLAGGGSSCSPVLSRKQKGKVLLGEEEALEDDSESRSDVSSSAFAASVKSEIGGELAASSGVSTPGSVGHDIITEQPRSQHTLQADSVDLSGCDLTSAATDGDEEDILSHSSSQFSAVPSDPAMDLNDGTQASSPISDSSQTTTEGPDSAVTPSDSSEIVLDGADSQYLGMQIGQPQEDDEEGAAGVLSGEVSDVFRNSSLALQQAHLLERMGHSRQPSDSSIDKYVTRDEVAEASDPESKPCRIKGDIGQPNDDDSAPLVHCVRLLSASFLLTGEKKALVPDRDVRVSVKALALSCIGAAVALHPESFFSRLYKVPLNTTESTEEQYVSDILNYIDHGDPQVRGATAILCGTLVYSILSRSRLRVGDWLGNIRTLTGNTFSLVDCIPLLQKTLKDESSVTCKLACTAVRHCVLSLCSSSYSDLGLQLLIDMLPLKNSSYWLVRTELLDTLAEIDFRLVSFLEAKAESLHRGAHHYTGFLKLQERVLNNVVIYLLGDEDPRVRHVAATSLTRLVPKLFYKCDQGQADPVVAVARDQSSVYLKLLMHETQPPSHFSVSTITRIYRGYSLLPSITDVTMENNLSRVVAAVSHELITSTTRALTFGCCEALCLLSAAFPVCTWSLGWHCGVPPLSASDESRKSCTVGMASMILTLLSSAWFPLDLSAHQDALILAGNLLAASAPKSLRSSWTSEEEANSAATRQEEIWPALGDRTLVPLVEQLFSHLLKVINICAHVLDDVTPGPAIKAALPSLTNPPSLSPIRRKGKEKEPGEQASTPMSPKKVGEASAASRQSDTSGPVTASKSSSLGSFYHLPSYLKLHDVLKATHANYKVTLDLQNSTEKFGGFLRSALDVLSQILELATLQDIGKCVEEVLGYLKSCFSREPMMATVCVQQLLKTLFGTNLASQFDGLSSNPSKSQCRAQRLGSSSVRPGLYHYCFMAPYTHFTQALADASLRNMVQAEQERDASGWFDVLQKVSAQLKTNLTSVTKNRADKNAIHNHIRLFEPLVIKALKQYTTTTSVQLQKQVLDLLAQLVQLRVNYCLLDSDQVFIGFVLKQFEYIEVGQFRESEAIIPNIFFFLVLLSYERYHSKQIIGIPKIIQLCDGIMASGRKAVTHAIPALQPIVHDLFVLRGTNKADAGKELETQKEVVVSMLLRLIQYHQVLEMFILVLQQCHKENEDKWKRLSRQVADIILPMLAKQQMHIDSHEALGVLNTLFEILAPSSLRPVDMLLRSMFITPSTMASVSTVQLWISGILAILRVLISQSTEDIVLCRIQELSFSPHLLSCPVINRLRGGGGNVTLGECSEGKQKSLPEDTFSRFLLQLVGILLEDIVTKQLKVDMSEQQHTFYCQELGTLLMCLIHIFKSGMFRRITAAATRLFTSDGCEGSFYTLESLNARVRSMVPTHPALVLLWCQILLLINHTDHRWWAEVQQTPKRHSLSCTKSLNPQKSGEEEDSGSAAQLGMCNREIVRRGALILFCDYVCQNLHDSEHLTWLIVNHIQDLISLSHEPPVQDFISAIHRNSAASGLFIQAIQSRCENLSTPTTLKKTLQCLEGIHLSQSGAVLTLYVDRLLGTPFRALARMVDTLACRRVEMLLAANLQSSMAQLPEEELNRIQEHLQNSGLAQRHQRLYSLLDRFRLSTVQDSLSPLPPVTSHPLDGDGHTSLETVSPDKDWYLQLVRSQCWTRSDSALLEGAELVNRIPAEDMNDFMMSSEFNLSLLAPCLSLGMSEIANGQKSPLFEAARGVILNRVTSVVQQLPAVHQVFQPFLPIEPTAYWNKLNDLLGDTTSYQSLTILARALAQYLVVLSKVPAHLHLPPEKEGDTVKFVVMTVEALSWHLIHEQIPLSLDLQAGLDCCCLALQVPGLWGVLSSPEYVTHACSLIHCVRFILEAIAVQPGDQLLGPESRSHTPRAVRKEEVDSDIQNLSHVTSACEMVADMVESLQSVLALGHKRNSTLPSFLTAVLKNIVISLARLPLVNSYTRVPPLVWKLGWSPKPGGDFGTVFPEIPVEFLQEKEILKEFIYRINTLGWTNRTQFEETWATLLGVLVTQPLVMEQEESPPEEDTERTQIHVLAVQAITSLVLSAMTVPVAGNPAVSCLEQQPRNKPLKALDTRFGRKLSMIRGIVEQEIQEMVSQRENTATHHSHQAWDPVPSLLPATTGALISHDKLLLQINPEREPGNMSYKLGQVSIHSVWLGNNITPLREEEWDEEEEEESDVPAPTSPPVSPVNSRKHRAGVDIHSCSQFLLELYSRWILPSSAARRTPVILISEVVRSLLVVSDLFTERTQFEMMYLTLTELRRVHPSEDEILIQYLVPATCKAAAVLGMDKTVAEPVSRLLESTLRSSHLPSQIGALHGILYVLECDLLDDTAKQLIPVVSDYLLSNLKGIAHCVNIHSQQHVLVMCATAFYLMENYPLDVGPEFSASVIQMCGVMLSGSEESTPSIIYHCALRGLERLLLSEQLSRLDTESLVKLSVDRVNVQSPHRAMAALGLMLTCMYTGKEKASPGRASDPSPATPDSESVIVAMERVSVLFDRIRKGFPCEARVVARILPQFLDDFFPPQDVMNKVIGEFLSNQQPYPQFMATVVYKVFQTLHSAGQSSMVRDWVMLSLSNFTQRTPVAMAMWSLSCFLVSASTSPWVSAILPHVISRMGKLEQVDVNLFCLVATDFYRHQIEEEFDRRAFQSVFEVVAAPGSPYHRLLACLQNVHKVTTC
UniProt P11103: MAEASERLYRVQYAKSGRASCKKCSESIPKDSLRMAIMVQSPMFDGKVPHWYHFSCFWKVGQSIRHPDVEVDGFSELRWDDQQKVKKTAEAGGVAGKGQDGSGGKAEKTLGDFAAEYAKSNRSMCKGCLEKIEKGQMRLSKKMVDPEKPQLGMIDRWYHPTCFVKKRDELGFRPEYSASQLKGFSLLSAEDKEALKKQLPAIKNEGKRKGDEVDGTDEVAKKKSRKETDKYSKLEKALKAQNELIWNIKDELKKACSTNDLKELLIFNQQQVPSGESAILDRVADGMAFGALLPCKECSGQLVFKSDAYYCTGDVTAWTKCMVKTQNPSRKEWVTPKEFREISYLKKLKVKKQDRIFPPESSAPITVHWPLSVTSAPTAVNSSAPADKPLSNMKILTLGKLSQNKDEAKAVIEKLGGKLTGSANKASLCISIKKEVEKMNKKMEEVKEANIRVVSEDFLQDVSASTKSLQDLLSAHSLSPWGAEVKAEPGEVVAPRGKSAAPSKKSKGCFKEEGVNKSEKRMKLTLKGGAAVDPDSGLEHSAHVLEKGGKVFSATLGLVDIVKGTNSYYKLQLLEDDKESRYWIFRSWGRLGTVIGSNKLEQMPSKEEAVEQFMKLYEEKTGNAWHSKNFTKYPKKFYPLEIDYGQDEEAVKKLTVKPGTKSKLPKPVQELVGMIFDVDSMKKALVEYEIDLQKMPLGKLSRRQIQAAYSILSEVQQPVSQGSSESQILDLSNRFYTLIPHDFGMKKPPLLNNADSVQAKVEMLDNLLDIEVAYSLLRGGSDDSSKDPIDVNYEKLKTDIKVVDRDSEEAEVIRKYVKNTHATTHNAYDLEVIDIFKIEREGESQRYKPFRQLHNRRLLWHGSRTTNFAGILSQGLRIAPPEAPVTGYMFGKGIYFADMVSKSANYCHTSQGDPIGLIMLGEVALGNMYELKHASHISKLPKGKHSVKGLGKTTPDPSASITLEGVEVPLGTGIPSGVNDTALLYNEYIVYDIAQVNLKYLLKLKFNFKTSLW
UniProt P70388: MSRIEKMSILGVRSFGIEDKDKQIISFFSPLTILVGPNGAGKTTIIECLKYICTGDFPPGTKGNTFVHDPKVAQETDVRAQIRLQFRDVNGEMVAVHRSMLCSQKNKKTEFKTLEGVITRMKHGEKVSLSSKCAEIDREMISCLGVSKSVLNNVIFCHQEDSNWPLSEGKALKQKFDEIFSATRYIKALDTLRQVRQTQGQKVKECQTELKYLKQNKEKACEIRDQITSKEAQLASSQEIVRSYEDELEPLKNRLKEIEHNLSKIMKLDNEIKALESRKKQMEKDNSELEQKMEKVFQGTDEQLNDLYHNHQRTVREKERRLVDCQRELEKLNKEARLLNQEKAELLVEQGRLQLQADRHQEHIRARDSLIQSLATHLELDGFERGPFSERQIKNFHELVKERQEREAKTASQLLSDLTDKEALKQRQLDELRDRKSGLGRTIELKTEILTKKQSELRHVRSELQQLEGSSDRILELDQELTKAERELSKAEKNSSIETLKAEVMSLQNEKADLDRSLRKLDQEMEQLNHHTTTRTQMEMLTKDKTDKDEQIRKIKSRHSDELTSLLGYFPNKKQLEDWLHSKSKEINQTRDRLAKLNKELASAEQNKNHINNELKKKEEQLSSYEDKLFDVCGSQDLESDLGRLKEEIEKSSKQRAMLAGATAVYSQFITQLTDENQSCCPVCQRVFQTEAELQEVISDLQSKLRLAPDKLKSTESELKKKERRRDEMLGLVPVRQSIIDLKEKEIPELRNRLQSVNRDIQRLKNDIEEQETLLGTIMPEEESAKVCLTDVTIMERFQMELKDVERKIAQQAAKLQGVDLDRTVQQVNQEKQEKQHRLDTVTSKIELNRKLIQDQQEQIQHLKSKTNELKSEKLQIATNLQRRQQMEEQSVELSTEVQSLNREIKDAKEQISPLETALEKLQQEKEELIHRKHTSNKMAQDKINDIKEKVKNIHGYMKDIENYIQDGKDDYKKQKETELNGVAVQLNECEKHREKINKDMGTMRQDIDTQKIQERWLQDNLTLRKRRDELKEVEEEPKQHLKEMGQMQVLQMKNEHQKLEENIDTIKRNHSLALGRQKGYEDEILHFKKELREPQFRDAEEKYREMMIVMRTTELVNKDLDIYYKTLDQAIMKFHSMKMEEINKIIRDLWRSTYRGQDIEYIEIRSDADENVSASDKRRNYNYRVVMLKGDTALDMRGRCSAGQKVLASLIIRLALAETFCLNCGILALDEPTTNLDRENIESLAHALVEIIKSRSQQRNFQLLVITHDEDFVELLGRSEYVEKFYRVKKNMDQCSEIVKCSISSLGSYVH
UniProt Q9CQ71: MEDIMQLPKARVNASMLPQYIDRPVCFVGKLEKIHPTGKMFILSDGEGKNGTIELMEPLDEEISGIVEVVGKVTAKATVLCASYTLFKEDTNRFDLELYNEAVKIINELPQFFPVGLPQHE
UniProt Q62193: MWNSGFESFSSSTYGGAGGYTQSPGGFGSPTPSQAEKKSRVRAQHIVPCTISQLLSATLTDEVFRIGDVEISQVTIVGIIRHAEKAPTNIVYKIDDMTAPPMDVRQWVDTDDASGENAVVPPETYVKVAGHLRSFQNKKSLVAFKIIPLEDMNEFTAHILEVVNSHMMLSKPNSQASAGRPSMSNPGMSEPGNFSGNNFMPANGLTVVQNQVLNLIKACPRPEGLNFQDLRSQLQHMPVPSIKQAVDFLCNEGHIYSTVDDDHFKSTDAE
UniProt Q8VEE4: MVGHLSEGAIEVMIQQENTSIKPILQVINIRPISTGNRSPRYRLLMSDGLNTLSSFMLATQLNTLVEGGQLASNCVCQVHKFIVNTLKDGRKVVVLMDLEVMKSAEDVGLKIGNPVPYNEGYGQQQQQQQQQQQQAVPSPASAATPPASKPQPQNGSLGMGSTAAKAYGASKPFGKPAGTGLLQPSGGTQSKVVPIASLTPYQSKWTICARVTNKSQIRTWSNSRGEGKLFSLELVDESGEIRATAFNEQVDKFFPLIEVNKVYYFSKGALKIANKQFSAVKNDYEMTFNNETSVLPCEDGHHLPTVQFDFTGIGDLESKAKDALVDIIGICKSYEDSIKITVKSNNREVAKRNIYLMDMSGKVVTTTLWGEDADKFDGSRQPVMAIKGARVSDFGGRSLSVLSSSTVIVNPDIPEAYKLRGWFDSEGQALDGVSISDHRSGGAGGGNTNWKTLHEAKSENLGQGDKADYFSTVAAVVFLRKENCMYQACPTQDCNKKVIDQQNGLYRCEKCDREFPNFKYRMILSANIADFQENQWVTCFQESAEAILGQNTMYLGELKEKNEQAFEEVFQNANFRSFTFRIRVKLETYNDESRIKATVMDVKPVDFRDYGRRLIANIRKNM

According to publication PMC13377174:

B1: ligase 3 (protein, UniProt P97386 1-1015)
chain: MTLAFKILFPRNLCALGRKELCLFPEQNRWAAISQFSQWSETNLLGGCCLLQRRKPVLALQRGHLRPRATHLTFWPGSHVGLCTGPCAMAEQRFCVDYAKRGTAGCKKCKEKIVKGVCRIGKVVPNPFSESGGDMKEWYHIKCMFEKLERARATTKKIEDLTELEGWEELEDNEKEQISQHIADLSSKAAATPKKKAAVQAKLTTTGQVTSPVKGASFITSTNPRKFSGFSAAKPNNSEQAPSSPAPGTSLSASKCDPKHKDCLLREFRKLCAMVAENPSYNTKTQIIHDFLQKGSTGGFSDGFHGDVYLTVKLLLPGVIKSVYNLNDKQIVKLFSRIFNCNPDDMARDLEQGDVSETIRIFFEQSKSFPPAAKSLLTIQEVDAFLLHLSKLTKEDEQQQALQDIASRCTANDLKCIIRLIKHDLKMNSGAKHVLDALDPNAYEAFKASRNLQDVVERVLHNEQEVEKDPGRRRALRVQASLMTPVQPMLAEACKSIEYAMKKCPNGMFSEIKYDGERVQVHKKGDHFSYFSRSLKPVLPHKVAHFKDYIPKAFPGGQSMILDSEVLLIDNNTGKPLPFGTLGVHKKAAFQDANVCLFVFDCIYFNDVSLMDRPLCERRKFLHDNMVEIRNRIMFSEMKQVTKASDLADMINRVIREGLEGLVLKDVKGTYEPGKRHWLKVKKDYLNEGAMADTADLVVLGAFYGQGSKGGMMSIFLMGCYDPDSQKWCTVTKCAGGHDDATLARLQKELVMVKISKDPSKIPSWLKINKIYYPDFIVPDPKKAAVWEITGAEFSRSEAHTADGISIRFPRCTRIRDDKDWKSATNLPQLKELYQLSKDKADFAVVAGDEASPTTGGSSGENEGTAGSAGPCKGPPSKSSASAKTTEQKLNSPSSRGGIKPIPKHSPMKPGEKLAVKSSPVKVGMKRKATDETPCLKKVLLDVFTGVRLYLPPSTPDFKRLKRYFVAFDGDLVQEFDMGSATHVLGNREKNTDAQLVSSEWIWACIRKRRLIAPC

Molecular target: huntingtin protein (normal, endogenous mouse) (mouse (endogenous in mouse brain tissue and NIH3T3)) (UniProt P42859)
Experiment: affinity purification with mass spectrometry; IP-MS from NIH3T3 cell lysate, cells with endogenous Htt alone or overexpressing htt (26 CAG) or mhtt (51 CAG); anti-Htt antibody mixture on Dynabead Protein G, 18 h at 4 °C; DIA mass spectrometry, triplicate

binding	Molecule
binds	Poly {ADP-ribose} polymerase (PARP1) (from UniProt P11103 1-1013)
binds weakly	RAD50 (from UniProt P70388 1-1312)
binds	B1

Molecular target: huntingtin protein (normal, endogenous mouse) (mouse (endogenous in mouse brain tissue and NIH3T3)) (UniProt P42859)
Experiment: affinity purification with mass spectrometry; IP-MS from brain tissue lysate of n = 3 WT and n = 3 HdhQ(150/150) mice; anti-Htt antibody mixture (MAB-2166, MAB-2168, MAB2170) on Dynabead Protein G, 18 h at 4 °C; DIA mass spectrometry; control IgG gave no pulldown products

binding	Molecule
binds	Poly {ADP-ribose} polymerase (PARP1) (from UniProt P11103 1-1013)
binds	replication protein A protein RPA14 (from UniProt Q9CQ71 1-121)
binds	replication protein A protein RPA32 (from UniProt Q62193 1-270)
binds	replication protein A protein RPA70 (from UniProt Q8VEE4 1-623)
binds	B1

These are yes or no findings as the source states them, for the method shown. In cells and extracts the contact can be indirect. A yes stands for co-enrichment or nearness to the bait. Other partners may have been found.
